The list is a part of this screen's results and no random one: it gathers tests that were run many times, whatever their T/C, doses with no T/C, and many T/C values between a quarter and a half above the control. Other doses and runs of a compound stand elsewhere. T/C gives the treated animals as a percentage of the vehicle group. Some doses have a count of surviving animals in place of a T/C: the source holds a T/C of zero for them, seemingly a mark for toxic or unscored doses. Some doses without a T/C left all or most animals alive at the check, yet need not have been tolerated: survival well below the control is almost never listed, so the zero probably covers shortened survival too. Survivors were counted at the toxicity check, usually on the fifth day, unless a day is given; later deaths do not show. Schedules are NCI's codes, taken here to give the interval after Q, in days (D) or hours (H), and the number of doses after X. Where survival is the endpoint, the PubChem record calls one and a half times the control and up active, and a quarter to a half above the control has no call in these data; cut-offs in other NCI protocols can differ. Some entries hold several experiments; the values are given in rising order. Some T/C values are followed by the survivors on the day toxicity was checked, most often the fifth; without a count, all were alive then.
System: BDF1 mice, P388 leukemia ip, median survival T/C
Experiment: NCI In Vivo Anticancer Drug Screen. Data for tumor model P388 Leukemia (intraperitoneal) in B6D2F1 (BDF1) mice
Conditions: T/C endpoint: median survival time, higher T/C = longer survival
Summary of the method: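 Survival ratio, drug arm over vehicle arm, in mice with a transplanted tumour.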

[1] = dose: 100.0 mg/kg/injection, schedule: Q01DX009 (ip), vehicle: saline with Tween-80
[2] = dose: 200.0 mg/kg/injection, schedule: Q01DX009 (ip), vehicle: saline with Tween-80
[3] = dose: 400.0 mg/kg/injection, schedule: Q01DX009 (ip), vehicle: saline with Tween-80
[4] = dose: 100.0 mg/kg/injection, schedule: Q01DX009 (ip), vehicle: saline
[5] = dose: 150.0 mg/kg/injection, schedule: Q01DX009 (ip), vehicle: saline
[6] = dose: 400.0 mg/kg/injection, schedule: Q01DX009 (ip), vehicle: saline

With `COc1cccc2c1C(=O)c1c(O)c3c(c(O)c1C2=O)C[C@@](O)(/C(CO)=N/NC(=O)c1ccccc1)C[C@@H]3OC1CC(N)C(O)C(C)O1` (stereo not given in full) the T/C (dose: 1.56 mg/kg/injection, schedule: Q01DX009 (ip), vehicle: water) was 146 % of control and the survivor count (dose: 25.0 mg/kg/injection, schedule: Q01DX009 (ip), vehicle: water) was 6 of 6.

For `CC(=O)Oc1ccc(OC(C)=O)c2c1C(=O)C=CC2=O`, the T/C (dose: 0.37 mg/kg/injection, schedule: Q01DX009 (ip), vehicle: Klucel (hydroxypropylcellulose) (HPC)) was 130 % of control [5 of 6 alive], the T/C (dose: 0.75 mg/kg/injection, schedule: Q01DX009 (ip), vehicle: Klucel (hydroxypropylcellulose) (HPC)) was 142 % of control and the survivor count (dose: 3.12 mg/kg/injection, schedule: Q01DX009 (ip), vehicle: Klucel (hydroxypropylcellulose) (HPC)) was 5 of 6. The survivor count (dose: 12.5 mg/kg/injection, schedule: Q01DX009 (ip), vehicle: Klucel (hydroxypropylcellulose) (HPC)) was 6 of 6, the survivor count (dose: 25.0 mg/kg/injection, schedule: Q01DX009 (ip), vehicle: Klucel (hydroxypropylcellulose) (HPC)) was 0 of 6 and the survivor count (dose: 50.0 mg/kg/injection, schedule: Q01DX009 (ip), vehicle: Klucel (hydroxypropylcellulose) (HPC)) was 0 of 6.

With `O=Nc1c(N=O)c(N=O)c(N=O)c(N=O)c1N=O` the survivor count (dose: 10.0 mg/kg/injection, schedule: Q01DX010 (ip), vehicle: saline) was 6 of 6, the survivor count (dose: 20.0 mg/kg/injection, schedule: Q01DX010 (ip), vehicle: saline) was 6 of 6 and the survivor count (dose: 40.0 mg/kg/injection, schedule: Q01DX010 (ip), vehicle: saline) was 6 of 6. The survivor count (dose: 160.0 mg/kg/injection, schedule: Q01DX010 (ip), vehicle: saline) was 0 of 6.

In the case of `CCOC(=O)c1cc2ccccc2n1-c1ccccc1`, the survivor count [1] is reported as 6 of 6 and the survivor count [2] is reported as 6 of 6.

With `O=CC(OC(=O)c1ccccc1)C(OC(=O)c1ccccc1)C(COC(c1ccccc1)(c1ccccc1)c1ccccc1)OC(=O)c1ccccc1` (stereo not given) the T/C [1] was 125 % of control and the survivor count [3] was 1 of 3.

For `Cc1c2oc3c(C)ccc(C(=O)NC(C)Cc4ccccc4)c3nc-2c(C(=O)NC(C)Cc2ccccc2)c(N)c1=O` (stereo not given), the survivor count (dose: 400.0 mg/kg/injection, schedule: Q04DX002 (ip), vehicle: DMSO) was 3 of 6.

In the case of `CCC(=O)NC(C(=O)NC(C(=O)NC(CC(C)C)C(O)CC(=O)NC(C)C(=O)NC(CC(C)C)C(O)CC(=O)O)C(C)C)C(C)C` (stereo not given), the survivor count [2] is reported as 3 of 6.

For `C=C1C(=O)OC2/C=C(\C)CC(O)/C=C(\C)CC(OC(=O)/C(=C\C)COC(C)=O)C12` (stereo not given), the T/C (dose: 30.0 mg/kg/injection, schedule: Q01DX009 (ip), vehicle: saline) was 145 % of control and the survivor count [4] was 4 of 6.

For `O=C1C=C(NCc2ccccc2)CCC1`, the survivor count (dose: 12.5 mg/kg/injection, schedule: Q01DX009 (ip), vehicle: saline with Tween-80) was 6 of 6 and the survivor count [4] was 3 of 6.

In the case of `O=C(O)C(O)C(O)C1[O][Sb][O]C1CO` (stereo not given), the T/C (dose: 35.0 mg/kg/injection, schedule: Q01DX009 (ip), vehicle: saline) is reported as 127 % of control, the T/C (dose: 35.0 mg/kg/injection, schedule: Q04DX003 (ip), vehicle: saline) is reported as 140 % of control and the T/C (dose: 50.0 mg/kg/injection, schedule: Q04DX003 (ip), vehicle: saline) is reported as 135 % of control. The T/C (dose: 66.0 mg/kg/injection, schedule: Q04DX003 (ip), vehicle: saline) was 130 and 140 % of control, the T/C [4] was 141 % of control and the T/C (dose: 100.0 mg/kg/injection, schedule: Q04DX003 (ip), vehicle: saline) was 131, 135, 140 % of control. The T/C [5] was 145 % of control, the survivor count [5] was 6 of 6 and the T/C (dose: 150.0 mg/kg/injection, schedule: Q04DX003 (ip), vehicle: saline) was 140 % of control. For the same molecule, the T/C (dose: 200.0 mg/kg/injection, schedule: Q04DX003 (ip), vehicle: saline) was 125 % of control [4 of 6 alive], the survivor count (dose: 300.0 mg/kg/injection, schedule: Q01DX009 (ip), vehicle: saline) was 0 of 6 and the T/C (dose: 300.0 mg/kg/injection, schedule: Q04DX003 (ip), vehicle: saline) was 130 % of control [4 of 6 alive].

`CCCC#CCOCC(O)CCl` (stereo not given) was tested, and the survivor count [6] was 2 of 6 and the survivor count (dose: 400.0 mg/kg/injection, schedule: Q04DX003 (ip), vehicle: saline with Tween-80) was 3 of 6.

For `CCN1CSC(=S)N(CC)C1`, the survivor count (dose: 100.0 mg/kg/injection, schedule: Q04DX003 (ip), vehicle: Klucel (hydroxypropylcellulose) (HPC)) was 5 of 6 and the survivor count (dose: 150.0 mg/kg/injection, schedule: Q01DX009 (ip), vehicle: saline with Tween-80) was 3 of 6.

In the case of `CCN(CC)CCCOC(=O)/C=C/c1c(C)[nH]c(=O)[nH]c1=O`, the survivor count (dose: 6.25 mg/kg/injection, schedule: Q01DX009 (ip), vehicle: saline) is reported as 6 of 6, the survivor count (dose: 12.5 mg/kg/injection, schedule: Q01DX009 (ip), vehicle: saline) is reported as 6 of 6 and the survivor count (dose: 25.0 mg/kg/injection, schedule: Q01DX009 (ip), vehicle: saline) is reported as 6 of 6. The survivor count (dose: 50.0 mg/kg/injection, schedule: Q01DX009 (ip), vehicle: saline) was 6 of 6 and the survivor count [4] was 5 of 6.

In the case of `COC(C)c1cnccc1C(C)c1cc2ccccc2[nH]1` (stereo not given), the survivor count (dose: 400.0 mg/kg/injection, schedule: Q01DX001 (ip), vehicle: saline with Tween-80) is reported as 0 of 6.

`CCCCCCCCCCCCCCCC[N+](C)(C)c1nc(Cl)nc(Cl)n1` was tested, and the survivor count (dose: 60.0 mg/kg/injection, schedule: Q01DX009 (ip), vehicle: saline) was 6 of 6.

In the case of `CCOC(=O)C1CC[N+](=c2cc(-c3ccc(Cl)cc3)ss2)CC1` (stereo not given), the T/C (dose: 200.0 mg/kg/injection, schedule: Q01DX009 (ip), vehicle: saline) is reported as 126 % of control [5 of 6 alive] and the survivor count [6] is reported as 2 of 6.

For `CC(=O)Nc1ccc(S(=O)(=O)SC(F)(F)F)cc1`, the survivor count (dose: 25.0 mg/kg/injection, schedule: Q01DX010 (ip), vehicle: saline) was 2 of 6, the survivor count (dose: 50.0 mg/kg/injection, schedule: Q01DX010 (ip), vehicle: saline) was 1 of 6 and the survivor count (dose: 100.0 mg/kg/injection, schedule: Q01DX010 (ip), vehicle: saline) was 1 of 6. For the same molecule, the survivor count (dose: 200.0 mg/kg/injection, schedule: Q01DX010 (ip), vehicle: saline) was 0 of 6.

For `CS(=O)(=O)Nc1ccccc1[N+](=O)[O-]`, the survivor count [2] was 3 of 6 and the survivor count [3] was 0 of 6.

For `c1cc[c]([Sn]([c]2ccccc2)([c]2ccccc2)[n]2cnc3ccccc32)cc1`, the survivor count (dose: 1.75 mg/kg/injection, schedule: Q01DX009 (ip), vehicle: Klucel (hydroxypropylcellulose) (HPC)) was 4 of 6, the survivor count (dose: 3.5 mg/kg/injection, schedule: Q01DX009 (ip), vehicle: Klucel (hydroxypropylcellulose) (HPC)) was 3 of 6 and the survivor count (dose: 14.0 mg/kg/injection, schedule: Q01DX009 (ip), vehicle: Klucel (hydroxypropylcellulose) (HPC)) was 3 of 6. The survivor count (dose: 28.0 mg/kg/injection, schedule: Q01DX009 (ip), vehicle: Klucel (hydroxypropylcellulose) (HPC)) was 3 of 6 and the survivor count (dose: 40.0 mg/kg/injection, schedule: Q04DX003 (ip), vehicle: Klucel (hydroxypropylcellulose) (HPC)) was 1 of 6.

In the case of `O=C1c2cccc(O)c2C(=O)c2c(O)cc(CO)cc21`, the survivor count (dose: 5.0 mg/kg/injection, schedule: Q01DX010 (ip), vehicle: other) is reported as 4 of 4, the T/C (dose: 20.0 mg/kg/injection, schedule: Q01DX010 (ip), vehicle: other) is reported as 133 % of control and the T/C (dose: 40.0 mg/kg/injection, schedule: Q01DX010 (ip), vehicle: other) is reported as 136 % of control. The T/C (dose: 80.0 mg/kg/injection, schedule: Q01DX010 (ip), vehicle: other) was 129 and 131 % of control, the survivor count (dose: 100.0 mg/kg/injection, schedule: Q01DX010 (ip), vehicle: carboxymethylcellulose (CMC)) was 6 of 6 and the survivor count (dose: 150.0 mg/kg/injection, schedule: Q01DX010 (ip), vehicle: carboxymethylcellulose (CMC)) was 6 of 6.

With `OC(c1ccccc1)(C1CCNCC1)C1CC1` (stereo not given) the survivor count (dose: 200.0 mg/kg/injection, schedule: Q01DX001 (ip), vehicle: saline) was 2 of 6.

Source: PubChem BioAssay AID328 (DTP/NCI, 2004)
